The target of the data set is T1, DrRuvC (Deinococcus radiodurans) (UniProt Q9RX75).
T1 sequence (looked up, limits assumed): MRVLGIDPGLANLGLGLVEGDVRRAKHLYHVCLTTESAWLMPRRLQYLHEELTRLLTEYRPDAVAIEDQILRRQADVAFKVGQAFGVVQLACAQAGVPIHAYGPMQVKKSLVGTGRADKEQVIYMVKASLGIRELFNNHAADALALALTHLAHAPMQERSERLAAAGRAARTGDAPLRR
The data set can be described thus: EMSA. Conditions: Mg2+, shift disappears completely above 1.5 mM; 50 mM Tris-HCl pH 7.0, 100 mM NaCl, 1 mM EDTA, 1% glycerol, 50 nM 5'-FAM DNA, on ice 30 min, 5% native PAGE; recombinant protein; protein details: N-terminal 6xHis (pET28a NdeI/BamHI); label: 5'-FAM on one strand; folded or branched DNA.

Results on one sequence are retold here after PMC9228767, “Structural and Functional Characterization of the Holliday Junction Resolvase RuvC from Deinococcus radiodurans” (Microorganisms, 2022).

For at least one entry, the source does not settle the construct or the ends of the probe. No signal at the amounts used counts as a negative. Where a protein sequence is shown, tags need not be part of it.

As for “CCACCAGAAACACGCCACAGTTTTTGTTTTGATTGCGAGGCCGTCCTACC / GGTAGGACGGCCTCGCAATCAAAACTTTTTGAGCACGCGAGATGTCAACG / CGTTGACATCTCGCGTGCTCAAAAAAAAAACAGATGCGGAGTGAAGTTCC / GGAACTTCACTCCGCATCTGTTTTTAAAAACTGTGGCGTGTTTCTGGTGG [HJ-0X]”, the binding result is recorded as “no binding”.
